Measurements reported in PubChem BioAssay AID1259425 (University of Nebraska Medical Center, 2018).
Test: 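Seek colon cancer weak points whose silencing resembles KSR1 loss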 (primary screen). Cell system: HCT116 human colon cancer cells. Reagent: siRNA pool against human genes, 50 nM siRNA. Detection: 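mRNA of six signature genes measured together by branched-DNA assay after 50 nM siRNA pool, blank removed, divided by geometric mean of two housekeeping genes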. Scale: BNIP3L mRNA: higher = more BNIP3L transcript after knockdown.
In all, the deposit lists about 14,000 reagents; this is a part drawn at random. Not all columns of the deposit are shown. Reagent sequences are not shown. Not given: the time to read-out.

PANK3 showed BNIP3L mRNA, set 1 = 0.135.
Depletion of ELMO3 came out at: BNIP3L mRNA, set 1 = 0.117.
With knock-down of DCSTAMP, the screen gave BNIP3L mRNA, set 1 = 0.137.
IGHMBP2 gave BNIP3L mRNA, set 1 = 0.0797.
After knock-down of PCMTD2 the results were BNIP3L mRNA, set 1 = 0.0531.
After knock-down of CEP350, the screen gave BNIP3L mRNA, set 1 = 0.0496.
For KARS1, the values are BNIP3L mRNA, set 1 = 0.0849.
After knock-down of ZYX, the screen gave BNIP3L mRNA, set 1 = 0.107.
Silencing of TIMMDC1 resulted in: BNIP3L mRNA, set 1 = 0.0797.
Knock-down of PHEX came out at: BNIP3L mRNA, set 1 = 0.0767.
After knock-down of FOXN2, the record shows BNIP3L mRNA, set 1 = 0.0991.
With knock-down of TRO the results were BNIP3L mRNA, set 1 = 0.127.
Against FSHR, the values are BNIP3L mRNA, set 1 = 0.251.
Against ROPN1 the deposit lists BNIP3L mRNA, set 1 = 0.235.
Against PLEKHF1 the deposit lists BNIP3L mRNA, set 1 = 0.258.
For PLAUR the deposit lists BNIP3L mRNA, set 1 = 0.0699.
Knock-down of DDX41 came out at: BNIP3L mRNA, set 1 = 0.0899.
KLC1 scored BNIP3L mRNA, set 1 = 0.0783.
For SLC5A5, the values are BNIP3L mRNA, set 1 = 0.0949.
ATP1B4 showed BNIP3L mRNA, set 1 = 0.121.
ALG1 gave BNIP3L mRNA, set 1 = 0.258.
After knock-down of HNRNPA0, the screen gave BNIP3L mRNA, set 1 = 0.177.
With knock-down of MLYCD, the screen gave BNIP3L mRNA, set 1 = 0.0573.
Knock-down of AP1S2 gave: BNIP3L mRNA, set 1 = 0.0726.
ILRUN showed BNIP3L mRNA, set 1 = 0.173.
After knock-down of STRIP1, the screen gave BNIP3L mRNA, set 1 = 0.158.
For MINAR1, the entry reads BNIP3L mRNA, set 1 = 0.144.
With knock-down of MCTS1, the screen gave BNIP3L mRNA, set 1 = 0.0724.

No new results follow: an excerpt of the list.
PHEX — BNIP3L mRNA, set 1: 0.0767
FOXN2 — BNIP3L mRNA, set 1: 0.0991
